Data as given in the supplement of paper PMC10849652.
The other results are listed elsewhere or left out.

Protein sequences, listed by entry. Tags and fused reporters are not part of them. Lines headed by an entry give the natural chain unless they say otherwise; changes in a name come on top.
UniProt Q9UGJ1, whole entry, looked up: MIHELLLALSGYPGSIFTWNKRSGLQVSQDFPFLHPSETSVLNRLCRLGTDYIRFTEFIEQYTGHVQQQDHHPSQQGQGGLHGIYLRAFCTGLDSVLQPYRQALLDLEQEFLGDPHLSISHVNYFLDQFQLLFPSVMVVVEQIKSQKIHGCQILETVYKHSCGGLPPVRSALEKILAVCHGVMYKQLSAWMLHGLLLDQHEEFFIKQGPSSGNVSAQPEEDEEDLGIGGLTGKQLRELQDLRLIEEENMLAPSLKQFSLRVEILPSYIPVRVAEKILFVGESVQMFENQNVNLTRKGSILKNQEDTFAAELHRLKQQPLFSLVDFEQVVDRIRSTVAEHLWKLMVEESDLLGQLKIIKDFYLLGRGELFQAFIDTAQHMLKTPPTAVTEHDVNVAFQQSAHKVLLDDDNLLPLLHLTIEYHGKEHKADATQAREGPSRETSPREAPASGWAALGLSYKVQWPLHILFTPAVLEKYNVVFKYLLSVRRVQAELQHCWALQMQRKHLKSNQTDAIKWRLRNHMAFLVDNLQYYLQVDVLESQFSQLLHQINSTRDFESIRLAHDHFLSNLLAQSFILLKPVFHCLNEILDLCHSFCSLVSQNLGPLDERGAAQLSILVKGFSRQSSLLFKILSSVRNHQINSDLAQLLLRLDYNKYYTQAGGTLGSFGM
UniProt Q9UNY4: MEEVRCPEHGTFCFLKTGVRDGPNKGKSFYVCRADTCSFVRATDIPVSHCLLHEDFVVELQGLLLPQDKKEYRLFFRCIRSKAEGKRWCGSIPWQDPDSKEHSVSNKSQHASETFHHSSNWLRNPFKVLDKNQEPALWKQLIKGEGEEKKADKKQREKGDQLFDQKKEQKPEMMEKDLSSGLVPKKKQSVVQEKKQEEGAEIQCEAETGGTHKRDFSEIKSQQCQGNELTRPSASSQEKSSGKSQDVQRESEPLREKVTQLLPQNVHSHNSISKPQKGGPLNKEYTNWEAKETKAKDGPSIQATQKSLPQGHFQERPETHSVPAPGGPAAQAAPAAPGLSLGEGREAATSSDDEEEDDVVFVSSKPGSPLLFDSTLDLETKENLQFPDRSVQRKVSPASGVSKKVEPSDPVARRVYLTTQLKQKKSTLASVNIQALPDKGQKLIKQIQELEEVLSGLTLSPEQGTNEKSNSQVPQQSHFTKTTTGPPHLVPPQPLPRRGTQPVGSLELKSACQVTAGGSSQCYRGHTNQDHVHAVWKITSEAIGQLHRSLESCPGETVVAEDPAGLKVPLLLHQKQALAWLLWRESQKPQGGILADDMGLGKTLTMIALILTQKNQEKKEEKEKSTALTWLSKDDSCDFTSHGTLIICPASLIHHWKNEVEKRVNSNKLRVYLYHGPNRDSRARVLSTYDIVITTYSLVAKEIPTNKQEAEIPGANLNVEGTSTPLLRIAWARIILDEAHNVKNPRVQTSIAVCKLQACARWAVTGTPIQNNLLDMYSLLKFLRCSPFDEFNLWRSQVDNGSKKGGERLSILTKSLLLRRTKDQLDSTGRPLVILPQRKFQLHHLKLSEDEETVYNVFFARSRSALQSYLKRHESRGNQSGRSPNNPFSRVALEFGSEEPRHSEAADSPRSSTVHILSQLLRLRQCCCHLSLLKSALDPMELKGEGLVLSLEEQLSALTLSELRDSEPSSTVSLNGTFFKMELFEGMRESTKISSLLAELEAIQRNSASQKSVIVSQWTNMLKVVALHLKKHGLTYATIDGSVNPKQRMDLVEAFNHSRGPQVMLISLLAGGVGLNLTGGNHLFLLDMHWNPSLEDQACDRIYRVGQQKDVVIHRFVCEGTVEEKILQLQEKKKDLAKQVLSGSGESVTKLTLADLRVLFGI
UniProt Q8TBC4: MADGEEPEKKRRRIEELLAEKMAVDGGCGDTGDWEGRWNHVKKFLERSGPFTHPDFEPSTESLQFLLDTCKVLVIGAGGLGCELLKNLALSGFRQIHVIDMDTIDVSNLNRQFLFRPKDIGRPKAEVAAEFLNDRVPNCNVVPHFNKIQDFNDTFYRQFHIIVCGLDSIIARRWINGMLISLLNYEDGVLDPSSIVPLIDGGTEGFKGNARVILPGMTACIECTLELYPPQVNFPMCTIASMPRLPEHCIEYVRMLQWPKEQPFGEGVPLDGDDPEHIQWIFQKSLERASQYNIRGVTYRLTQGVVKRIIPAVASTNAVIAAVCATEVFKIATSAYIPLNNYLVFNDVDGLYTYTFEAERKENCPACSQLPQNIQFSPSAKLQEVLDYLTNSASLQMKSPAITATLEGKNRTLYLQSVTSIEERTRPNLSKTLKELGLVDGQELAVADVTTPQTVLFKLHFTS
UniProt Q96RR1: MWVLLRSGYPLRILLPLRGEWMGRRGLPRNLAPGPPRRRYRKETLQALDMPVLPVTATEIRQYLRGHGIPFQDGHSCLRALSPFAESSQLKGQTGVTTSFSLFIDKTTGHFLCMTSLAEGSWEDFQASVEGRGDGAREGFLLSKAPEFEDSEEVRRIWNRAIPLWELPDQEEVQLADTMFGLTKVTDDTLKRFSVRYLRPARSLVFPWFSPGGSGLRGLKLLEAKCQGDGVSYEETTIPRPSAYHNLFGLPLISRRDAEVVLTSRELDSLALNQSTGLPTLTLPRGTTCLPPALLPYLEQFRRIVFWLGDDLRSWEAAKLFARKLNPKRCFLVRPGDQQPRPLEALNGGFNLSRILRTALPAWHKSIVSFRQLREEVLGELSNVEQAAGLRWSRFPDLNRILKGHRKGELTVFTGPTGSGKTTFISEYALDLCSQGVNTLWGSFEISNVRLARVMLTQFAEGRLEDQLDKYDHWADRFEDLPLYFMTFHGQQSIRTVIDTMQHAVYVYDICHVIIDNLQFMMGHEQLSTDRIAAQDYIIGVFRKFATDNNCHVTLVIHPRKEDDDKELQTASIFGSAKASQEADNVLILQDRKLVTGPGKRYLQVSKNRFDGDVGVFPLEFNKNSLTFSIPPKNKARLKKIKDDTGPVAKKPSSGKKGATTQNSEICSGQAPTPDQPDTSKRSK
UniProt Q7Z6J9: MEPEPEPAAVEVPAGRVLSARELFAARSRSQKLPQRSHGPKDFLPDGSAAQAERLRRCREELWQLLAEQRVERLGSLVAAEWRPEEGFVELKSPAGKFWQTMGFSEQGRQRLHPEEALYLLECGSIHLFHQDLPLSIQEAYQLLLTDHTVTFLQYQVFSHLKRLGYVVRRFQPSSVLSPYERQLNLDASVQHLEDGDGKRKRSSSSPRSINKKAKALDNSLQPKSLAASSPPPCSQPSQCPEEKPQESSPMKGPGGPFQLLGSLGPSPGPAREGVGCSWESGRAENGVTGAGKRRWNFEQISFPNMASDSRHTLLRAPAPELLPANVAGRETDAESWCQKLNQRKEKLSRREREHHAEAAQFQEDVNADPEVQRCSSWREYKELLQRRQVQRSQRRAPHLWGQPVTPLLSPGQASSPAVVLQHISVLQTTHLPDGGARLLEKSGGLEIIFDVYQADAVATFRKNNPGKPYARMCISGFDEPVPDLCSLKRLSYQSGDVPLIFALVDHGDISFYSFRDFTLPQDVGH
UniProt P33981: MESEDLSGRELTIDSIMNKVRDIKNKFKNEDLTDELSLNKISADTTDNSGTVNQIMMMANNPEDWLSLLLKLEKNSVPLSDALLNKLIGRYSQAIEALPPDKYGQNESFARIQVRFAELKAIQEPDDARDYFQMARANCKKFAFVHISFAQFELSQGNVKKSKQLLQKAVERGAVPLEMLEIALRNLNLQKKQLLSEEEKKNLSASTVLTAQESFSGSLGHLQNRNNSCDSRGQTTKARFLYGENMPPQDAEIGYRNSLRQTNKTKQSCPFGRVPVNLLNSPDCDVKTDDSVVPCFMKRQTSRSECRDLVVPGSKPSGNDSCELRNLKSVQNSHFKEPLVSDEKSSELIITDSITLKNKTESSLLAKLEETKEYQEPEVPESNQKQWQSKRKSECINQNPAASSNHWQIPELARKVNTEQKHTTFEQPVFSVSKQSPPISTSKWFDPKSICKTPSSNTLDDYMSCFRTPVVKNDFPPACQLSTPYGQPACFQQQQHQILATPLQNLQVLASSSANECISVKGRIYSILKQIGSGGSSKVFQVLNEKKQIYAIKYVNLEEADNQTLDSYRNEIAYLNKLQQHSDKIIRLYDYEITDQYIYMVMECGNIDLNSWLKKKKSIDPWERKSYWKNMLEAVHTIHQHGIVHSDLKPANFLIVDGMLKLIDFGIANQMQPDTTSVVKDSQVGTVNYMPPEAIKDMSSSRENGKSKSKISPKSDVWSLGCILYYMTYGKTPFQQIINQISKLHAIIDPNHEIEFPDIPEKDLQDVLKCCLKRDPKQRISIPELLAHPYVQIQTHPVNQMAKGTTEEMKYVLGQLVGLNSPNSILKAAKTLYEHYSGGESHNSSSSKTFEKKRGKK
UniProt Q8NBP0: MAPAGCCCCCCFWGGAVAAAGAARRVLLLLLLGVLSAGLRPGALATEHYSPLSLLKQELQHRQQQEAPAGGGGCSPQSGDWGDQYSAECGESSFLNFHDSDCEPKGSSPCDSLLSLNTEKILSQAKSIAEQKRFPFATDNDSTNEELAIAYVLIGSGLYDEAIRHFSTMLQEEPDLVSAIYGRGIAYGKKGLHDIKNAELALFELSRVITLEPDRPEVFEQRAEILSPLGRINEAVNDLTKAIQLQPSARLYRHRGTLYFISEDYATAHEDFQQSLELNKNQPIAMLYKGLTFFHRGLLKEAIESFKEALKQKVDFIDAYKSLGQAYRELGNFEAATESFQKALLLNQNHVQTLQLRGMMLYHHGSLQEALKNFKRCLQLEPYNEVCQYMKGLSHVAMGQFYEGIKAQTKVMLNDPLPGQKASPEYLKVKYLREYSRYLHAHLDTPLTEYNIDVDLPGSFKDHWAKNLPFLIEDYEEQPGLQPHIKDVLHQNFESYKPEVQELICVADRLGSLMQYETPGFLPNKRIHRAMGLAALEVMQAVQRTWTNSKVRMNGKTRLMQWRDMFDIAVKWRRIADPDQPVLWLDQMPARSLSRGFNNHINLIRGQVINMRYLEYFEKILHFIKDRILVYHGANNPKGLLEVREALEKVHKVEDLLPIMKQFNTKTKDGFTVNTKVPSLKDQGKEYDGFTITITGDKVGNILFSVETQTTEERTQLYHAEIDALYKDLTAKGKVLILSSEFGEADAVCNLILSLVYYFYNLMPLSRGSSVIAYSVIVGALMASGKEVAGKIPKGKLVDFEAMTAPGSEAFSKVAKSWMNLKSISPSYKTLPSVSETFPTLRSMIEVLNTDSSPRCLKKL
UniProt Q6PKC3: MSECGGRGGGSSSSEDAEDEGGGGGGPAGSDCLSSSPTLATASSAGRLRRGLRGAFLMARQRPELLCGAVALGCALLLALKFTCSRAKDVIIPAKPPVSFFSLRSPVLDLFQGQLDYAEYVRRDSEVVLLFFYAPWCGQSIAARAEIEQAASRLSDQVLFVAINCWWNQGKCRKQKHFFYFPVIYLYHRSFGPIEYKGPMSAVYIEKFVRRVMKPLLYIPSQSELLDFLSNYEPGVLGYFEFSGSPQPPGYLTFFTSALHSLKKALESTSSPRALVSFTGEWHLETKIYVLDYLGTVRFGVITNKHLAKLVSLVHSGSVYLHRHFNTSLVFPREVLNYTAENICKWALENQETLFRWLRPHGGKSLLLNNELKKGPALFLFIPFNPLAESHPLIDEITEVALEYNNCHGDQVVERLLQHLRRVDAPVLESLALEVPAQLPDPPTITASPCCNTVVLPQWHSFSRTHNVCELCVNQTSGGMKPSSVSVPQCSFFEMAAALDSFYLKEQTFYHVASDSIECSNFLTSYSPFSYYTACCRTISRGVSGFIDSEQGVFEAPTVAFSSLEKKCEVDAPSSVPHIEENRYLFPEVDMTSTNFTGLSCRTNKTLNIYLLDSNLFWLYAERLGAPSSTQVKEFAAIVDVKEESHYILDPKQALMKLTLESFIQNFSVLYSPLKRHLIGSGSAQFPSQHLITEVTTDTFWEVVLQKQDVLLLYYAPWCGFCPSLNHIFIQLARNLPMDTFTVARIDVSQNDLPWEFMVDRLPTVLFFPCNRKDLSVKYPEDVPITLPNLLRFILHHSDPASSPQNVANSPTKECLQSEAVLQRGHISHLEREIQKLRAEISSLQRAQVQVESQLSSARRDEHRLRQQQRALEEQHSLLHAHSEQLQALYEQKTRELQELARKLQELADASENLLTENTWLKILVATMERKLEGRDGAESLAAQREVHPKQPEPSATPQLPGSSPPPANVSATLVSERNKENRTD
UniProt Q12999: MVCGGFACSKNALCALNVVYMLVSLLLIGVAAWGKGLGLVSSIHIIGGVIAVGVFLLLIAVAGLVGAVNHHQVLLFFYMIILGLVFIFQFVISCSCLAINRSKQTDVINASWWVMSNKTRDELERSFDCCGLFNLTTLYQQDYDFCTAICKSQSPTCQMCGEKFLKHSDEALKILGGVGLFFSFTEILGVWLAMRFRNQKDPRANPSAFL

Legend:
Experiment in all cases: log2 fold change, soluble protein after heating vs DMSO (PISA); higher = thermal stabilisation; K562 cells, 10 uM, 30 min; active = over 0.2 and 3.5 SD of the protein, either way, in both replicates (recomputed)
[1] = compound: C1=CC=C(C=C1)[C@H](COC2=CC3=C(C=C2)NC(=O)N3)NC(=O)C4=CC=CN(C4=O)CC5=CC(=C(C=C5)F)F
Method in brief: (§1)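 K562 cells at 2×10^6 cells/mL were treated for 30 min with 10 μM compound, and aliquots were heated for 3 min over 48°C-58°C before pooling. Extraction used PBS with 0.5% NP-40 at 4°C, and soluble protein was the supernatant after 21,000xg for 90 min, measured by TMTpro 16plex LC-MS/MS with channel sums equalised. Thermal stability values, relative to control samples and from duplicates, are log2 fold changes.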

[2] = compound: CC1=C(SC2=C1C(=N[C@H](C3=NN=C(N32)C)CC(=O)N)C4=CC=C(C=C4)Cl)C
Method in brief: as §1

[3] = compound: Cc1sc2c(c1C)C(c1ccc(Cl)cc1)=N[C@@H](CC(=O)OC(C)(C)C)c1nnc(C)n1-2
Method in brief: as §1

[4] = compound: c1ccc([C@@H]2C[C@H]2NC2CCNCC2)cc1
Method in brief: as §1

[5] = compound: CC1=C2C(=CC=C1)N=C(N(C2=O)C3=CC=CC=C3C)CN4C=NC5=C(N=CN=C54)N
Method in brief: as §1

Measured: log2 fold change

TUBGCP4 (UniProt Q9UGJ1)
inactive: [1] -0.252 | [2] 0.224 | [3] 0.069 | [4] 0.159

TTF2 (UniProt Q9UNY4)
inactive: [2] 0.06 | [5] 0.024 | [3] 0.127 | [4] -0.041

UBA3 (UniProt Q8TBC4)
inactive: [1] -0.071 | [2] 0.101 | [5] 0.037 | [3] -0.022 | [4] -0.06

TWNK (UniProt Q96RR1)
inactive: [1] 0.047 | [5] -0.191 | [3] -0.034

U2AF1L5 (UniProt P0DN76)
inactive: [1] -0.008 | [5] -0.075 | [3] 0.057

TSEN54 (UniProt Q7Z6J9)
inactive: [1] 0.02 | [2] 0.119 | [5] -0.027 | [3] -0.018 | [4] -0.044

TTK (UniProt P33981)
inactive: [5] -0.15

TTC13 (UniProt Q8NBP0)
inactive: [2] -0.05 | [5] 0.028 | [3] 0.027 | [4] -0.027

TXNDC11 (UniProt Q6PKC3)
inactive: [1] 0.043 | [2] 0.026 | [5] -0.032 | [3] -0.031 | [4] -0.01

TSPAN31 (UniProt Q12999)
inactive: [2] -0.1 | [3] 0.116 | [4] 0.04

TSR1 (UniProt Q2NL82)
inactive: [1] 0.036 | [2] -0.049 | [5] -0.019 | [3] 0.198 | [4] -0.034
